In patent US20250101087A1:
These are yes or no findings as the source states them, for the method shown. Some entries that bind do so weakly or less than the wild type.

Chains of the proteins cited; added tags and fusions are not shown. Residues count along the entry.
UniProt P05067, residues 674-713: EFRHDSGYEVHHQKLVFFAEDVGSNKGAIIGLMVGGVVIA

Key:
[1] = target: amyloid plaques in human AD brain tissue (human) (UniProt P05067); assay: immunostaining of fresh frozen human AD frontal cortex
[2] = target: AβpE3 in amyloid plaques of APPPS1-21 mouse brain (human) (UniProt P05067); assay: anti-hIgG immunohistochemistry after in vivo dosing of APPPS1-21 mice

binding [1]: binds
binding [2]: binds
B1: Comparator Ab1 (antibody, human IgG1, kappa, V domains shown)
VH: QVQLVQSGAEVKKPGSSVKVSCKASGYDFTRYYINWVRQAPGQGLEWMGWINPGSGNTKYNEKFKGRVTITADESTSTAYMELSSLRSEDTAVYYCAREGITVYWGQGTTVTVSS
VL: DIVMTQTPLSLSVTPGQPASISCKSSQSLLYSRGKTYLNWLLQKPGQSPQLLIYAVSKLDSGVPDRFSGSGSGTDFTLKISRVEAEDVGVYYCVQGTHYPFTFGQGTKLEIKR
